{"source": "patent US20230293640A1", "about": "“COMPOUNDS FOR THE TREATMENT OF ENDOTHELIITIS IN CONTEXT OF VIRALLY CAUSED DISEASES” (F4 PHARMA GMBH, priority 2020, published 2023)", "origin": "cited, not measured here", "target": "T1, VE-cadherin (Homo sapiens, UniProt P33151)", "T1 sequence (P33151 48-784)": "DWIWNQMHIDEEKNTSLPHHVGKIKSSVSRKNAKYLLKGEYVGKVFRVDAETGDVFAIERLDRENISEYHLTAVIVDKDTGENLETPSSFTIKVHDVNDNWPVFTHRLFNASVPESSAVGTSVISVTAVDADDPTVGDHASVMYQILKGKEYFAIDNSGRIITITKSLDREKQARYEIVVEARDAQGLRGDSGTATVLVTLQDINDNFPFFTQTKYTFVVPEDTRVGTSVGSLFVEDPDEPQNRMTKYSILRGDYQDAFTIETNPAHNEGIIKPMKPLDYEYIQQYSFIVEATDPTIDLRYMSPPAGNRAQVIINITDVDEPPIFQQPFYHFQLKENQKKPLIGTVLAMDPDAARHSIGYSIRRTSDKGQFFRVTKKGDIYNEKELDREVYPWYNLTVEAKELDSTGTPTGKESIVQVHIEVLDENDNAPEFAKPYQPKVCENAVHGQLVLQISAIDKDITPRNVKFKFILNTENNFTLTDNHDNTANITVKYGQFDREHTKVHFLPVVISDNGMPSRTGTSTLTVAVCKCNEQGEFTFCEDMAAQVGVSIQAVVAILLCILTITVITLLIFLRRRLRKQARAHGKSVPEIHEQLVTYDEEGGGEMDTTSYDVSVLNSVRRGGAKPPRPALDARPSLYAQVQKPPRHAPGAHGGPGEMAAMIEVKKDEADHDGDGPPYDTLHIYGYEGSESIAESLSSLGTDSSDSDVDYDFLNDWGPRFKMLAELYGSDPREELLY", "conditions": "compared with the endogenous proinflammatory fibrin E1 fragment; cited from earlier work", "note": "Part of at least one peptide drawing is inferred or uncertain, most often the ends. Where a SMILES comes first, the peptide text is derived from it.", "data": [{"compound": "CC[C@H](C)[C@H](NC(=O)[C@@H]1CCCN1C(=O)[C@@H]1CCCN1C(=O)[C@@H]1CCCN1C(=O)[C@H](C)NC(=O)[C@@H]1CCCN1C(=O)[C@H](CCCNC(=N)N)NC(=O)[C@H](CC(C)C)NC(=O)[C@H](CO)NC(=O)[C@@H]1CCCN1C(=O)[C@H](C)NC(=O)[C@H](CCC(=O)O)NC(=O)[C@H](CCC(=O)O)NC(=O)[C@H](CCCNC(=N)N)NC(=O)[C@H](CCCCN)NC(=O)[C@H](CCCCN)NC(=O)[C@H](CC(=O)O)NC(=O)[C@H](CC(C)C)NC(=O)[C@@H]1CCCN1C(=O)[C@H](CCCNC(=N)N)NC(=O)[C@H](Cc1c[nH]cn1)NC(=O)CN)C(=O)N[C@@H](CO)C(=O)NCC(=O)NCC(=O)NCC(=O)N[C@@H](Cc1ccc(O)cc1)C(=O)N[C@@H](CCCNC(=N)N)C(=O)O", "note": "[FX06] (H-GHRPLDKKREEAPSLRPAPPPISGGGYR-OH)", "values": [{"measurement": "affinity for the binding of VE-cadherin", "result": "lower affinity"}]}]}
